# Results taken from the supplement of paper PMC4604168 (melanoma cell lines).
# The list shows a part of the results. Repeats are few or missing, and single values can be far off.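 Cells were imaged in 1,536-well plates, and nuclei stained with an antibody against cleaved PARP were counted against all DNA-stained nuclei to give the apoptosis fraction. Screening doses were chosen to leave most cells alive, and resting and induced cleaved-PARP levels differ strongly between cell lines.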
# Test system: RPMI7951
# Test: cleaved PARP positive nuclei fraction relative to DMSO control; melanoma cells; higher = more apoptosis
# Details: library dose: low library concentration; 72 h
row,Compound,cleaved PARP positive nuclei fraction [%]
1,"CO[C@H]1C[C@@H]2CC[C@@H](C)[C@@](O)(O2)C(=O)C(=O)N2CCCC[C@H]2C(=O)O[C@H]([C@H](C)C[C@@H]2CC[C@@H](OCCO)[C@H](OC)C2)CC(=O)[C@H](C)/C=C(\C)[C@@H](O)[C@@H](OC)C(=O)[C@H](C)C[C@H](C)/C=C/C=C/C=C/1C [everolimus] + C=CCn1c(=O)c2cnc(Nc3ccc(N4CCN(C)CC4)cc3)nc2n1-c1cccc(C(C)(C)O)n1 [MK1775] (first compound 0.02 µM, partner dose 0.02 µM)",120
2,"CO[C@H]1C[C@@H]2CC[C@@H](C)[C@@](O)(O2)C(=O)C(=O)N2CCCC[C@H]2C(=O)O[C@H]([C@H](C)C[C@@H]2CC[C@@H](OCCO)[C@H](OC)C2)CC(=O)[C@H](C)/C=C(\C)[C@@H](O)[C@@H](OC)C(=O)[C@H](C)C[C@H](C)/C=C/C=C/C=C/1C [everolimus] + Nc1ncn([C@H]2C[C@H](O)[C@@H](CO)O2)c(=O)n1 [decitabine] (first compound 0.02 µM, partner dose 0.1 µM)",58.3
3,"CO[C@H]1C[C@@H]2CC[C@@H](C)[C@@](O)(O2)C(=O)C(=O)N2CCCC[C@H]2C(=O)O[C@H]([C@H](C)C[C@@H]2CC[C@@H](OCCO)[C@H](OC)C2)CC(=O)[C@H](C)/C=C(\C)[C@@H](O)[C@@H](OC)C(=O)[C@H](C)C[C@H](C)/C=C/C=C/C=C/1C [everolimus] + CC(C)(C)c1cnc(CSc2cnc(NC(=O)C3CCNCC3)s2)o1 [SNS-032] (first compound 0.02 µM, partner dose 0.01 µM)",62.8
4,"CO[C@H]1C[C@@H]2CC[C@@H](C)[C@@](O)(O2)C(=O)C(=O)N2CCCC[C@H]2C(=O)O[C@H]([C@H](C)C[C@@H]2CC[C@@H](OCCO)[C@H](OC)C2)CC(=O)[C@H](C)/C=C(\C)[C@@H](O)[C@@H](OC)C(=O)[C@H](C)C[C@H](C)/C=C/C=C/C=C/1C [everolimus] + Cc1cc([N+](=O)[O-])ccc1NS(=O)(=O)c1cc(Cl)ccc1Cl [FH535] (first compound 0.02 µM, partner dose 1 µM)",105
5,"CO[C@H]1C[C@@H]2CC[C@@H](C)[C@@](O)(O2)C(=O)C(=O)N2CCCC[C@H]2C(=O)O[C@H]([C@H](C)C[C@@H]2CC[C@@H](OCCO)[C@H](OC)C2)CC(=O)[C@H](C)/C=C(\C)[C@@H](O)[C@@H](OC)C(=O)[C@H](C)C[C@H](C)/C=C/C=C/C=C/1C [everolimus] + O=C(O)c1ccc(-c2c[nH]c3ncc(-c4ccccc4)cc23)cc1C1CCCC1 [GSK650394] (first compound 0.02 µM, partner dose 0.16 µM)",154
6,"CO[C@H]1C[C@@H]2CC[C@@H](C)[C@@](O)(O2)C(=O)C(=O)N2CCCC[C@H]2C(=O)O[C@H]([C@H](C)C[C@@H]2CC[C@@H](OCCO)[C@H](OC)C2)CC(=O)[C@H](C)/C=C(\C)[C@@H](O)[C@@H](OC)C(=O)[C@H](C)C[C@H](C)/C=C/C=C/C=C/1C [everolimus] + COc1ccc(COc2ccc(Cc3cnc(N)nc3N)cc2OC)cc1 [GW2580] (first compound 0.02 µM, partner dose 1 µM)",55.1
7,"CO[C@H]1C[C@@H]2CC[C@@H](C)[C@@](O)(O2)C(=O)C(=O)N2CCCC[C@H]2C(=O)O[C@H]([C@H](C)C[C@@H]2CC[C@@H](OCCO)[C@H](OC)C2)CC(=O)[C@H](C)/C=C(\C)[C@@H](O)[C@@H](OC)C(=O)[C@H](C)C[C@H](C)/C=C/C=C/C=C/1C [everolimus] + O=S(=O)(c1ccccc1)N(CC(F)(F)F)c1ccc(C(O)(C(F)(F)F)C(F)(F)F)cc1 [T0901317] (first compound 0.02 µM, partner dose 1.4 µM)",104
8,"Cn1c(=O)n(-c2ccc(C(C)(C)C#N)cc2)c2c3cc(-c4cnc5ccccc5c4)ccc3ncc21 + CN1CCN(c2ccc3nc(-c4c(N)c5c(F)cccc5[nH]c4=O)[nH]c3c2)CC1 [Dovitinib] (first compound 0.004 µM, partner dose 0.1 µM)",148
9,"CO[C@H]1C[C@@H]2CC[C@@H](C)[C@@](O)(O2)C(=O)C(=O)N2CCCC[C@H]2C(=O)O[C@H]([C@H](C)C[C@@H]2CC[C@@H](OCCO)[C@H](OC)C2)CC(=O)[C@H](C)/C=C(\C)[C@@H](O)[C@@H](OC)C(=O)[C@H](C)C[C@H](C)/C=C/C=C/C=C/1C [everolimus] + COc1cc(Nc2ncc(F)c(Nc3ccc4c(n3)NC(=O)C(C)(C)O4)n2)cc(OC)c1OC [Tamatinib] (first compound 0.02 µM, partner dose 0.4 µM)",86.7
